Data from publication PMC5681266.
Results are given in words; binding and its absence hold for the method and conditions named. In cells and extracts the contact can be indirect. Some results given as binding are weak or reduced against the parent protein; the word gives no strength.

Target: atypical chemokine receptor 3 (human (endogenous in hPPAEC)), P25106
Test: proximity ligation; hPPAEC; mouse anti-ACKR3 and goat anti-CXCR4; control: omission of one secondary antibody
Settings: remark: other sources report otherwise

binding: binds
B1: chemokine (C-X-C) motif receptor (CXCR) 4, P61073 1-352 (receptor)
chain: MEGISIYTSDNYTEEMGSGDYDSMKEPCFREENANFNKIFLPTIYSIIFLTGIVGNGLVILVMGYQKKLRSMTDKYRLHLSVADLLFVITLPFWAVDAVANWYFGNFLCKAVHVIYTVNLYSSVLILAFISLDRYLAIVHATNSQRPRKLLAEKVVYVGVWIPALLLTIPDFIFANVSEADDRYICDRFYPNDLWVVVFQFQHIMVGLILPGIVILSCYCIIISKLSHSKGHQKRKALKTTVILILAFFACWLPYYIGISIDSFILLEIIKQGCEFENTVHKWISITEALAFFHCCLNPILYAFLGAKFKTSAQHALTSVSRGSSLKILSKGKRGGHSSVSTESESSSFHSS
